Like-named read-outs stand apart in the source and are kept apart here. No constants are given. Whether binding was seen depends on the method and setting. In cells and extracts the contact can be indirect. Some binding calls cover weakened binding; strength is not graded here. Tags and fused reporters may be left off the sequences shown.

By UniProt entry, the sequences of proteins in these tests, tags left out.
UniProt Q9VYG2: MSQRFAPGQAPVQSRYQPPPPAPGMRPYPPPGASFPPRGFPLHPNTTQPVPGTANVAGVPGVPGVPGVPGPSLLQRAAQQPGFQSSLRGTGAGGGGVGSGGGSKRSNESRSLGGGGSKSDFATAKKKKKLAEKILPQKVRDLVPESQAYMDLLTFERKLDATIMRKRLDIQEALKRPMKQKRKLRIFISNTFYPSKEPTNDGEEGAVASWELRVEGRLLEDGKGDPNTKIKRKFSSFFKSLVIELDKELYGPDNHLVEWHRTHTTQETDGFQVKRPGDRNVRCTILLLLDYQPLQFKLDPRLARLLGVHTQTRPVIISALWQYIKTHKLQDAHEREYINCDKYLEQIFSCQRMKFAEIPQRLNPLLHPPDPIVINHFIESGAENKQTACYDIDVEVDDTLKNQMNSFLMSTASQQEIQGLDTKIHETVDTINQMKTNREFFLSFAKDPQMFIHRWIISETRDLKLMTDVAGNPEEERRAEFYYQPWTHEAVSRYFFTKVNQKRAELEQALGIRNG
UniProt P51592: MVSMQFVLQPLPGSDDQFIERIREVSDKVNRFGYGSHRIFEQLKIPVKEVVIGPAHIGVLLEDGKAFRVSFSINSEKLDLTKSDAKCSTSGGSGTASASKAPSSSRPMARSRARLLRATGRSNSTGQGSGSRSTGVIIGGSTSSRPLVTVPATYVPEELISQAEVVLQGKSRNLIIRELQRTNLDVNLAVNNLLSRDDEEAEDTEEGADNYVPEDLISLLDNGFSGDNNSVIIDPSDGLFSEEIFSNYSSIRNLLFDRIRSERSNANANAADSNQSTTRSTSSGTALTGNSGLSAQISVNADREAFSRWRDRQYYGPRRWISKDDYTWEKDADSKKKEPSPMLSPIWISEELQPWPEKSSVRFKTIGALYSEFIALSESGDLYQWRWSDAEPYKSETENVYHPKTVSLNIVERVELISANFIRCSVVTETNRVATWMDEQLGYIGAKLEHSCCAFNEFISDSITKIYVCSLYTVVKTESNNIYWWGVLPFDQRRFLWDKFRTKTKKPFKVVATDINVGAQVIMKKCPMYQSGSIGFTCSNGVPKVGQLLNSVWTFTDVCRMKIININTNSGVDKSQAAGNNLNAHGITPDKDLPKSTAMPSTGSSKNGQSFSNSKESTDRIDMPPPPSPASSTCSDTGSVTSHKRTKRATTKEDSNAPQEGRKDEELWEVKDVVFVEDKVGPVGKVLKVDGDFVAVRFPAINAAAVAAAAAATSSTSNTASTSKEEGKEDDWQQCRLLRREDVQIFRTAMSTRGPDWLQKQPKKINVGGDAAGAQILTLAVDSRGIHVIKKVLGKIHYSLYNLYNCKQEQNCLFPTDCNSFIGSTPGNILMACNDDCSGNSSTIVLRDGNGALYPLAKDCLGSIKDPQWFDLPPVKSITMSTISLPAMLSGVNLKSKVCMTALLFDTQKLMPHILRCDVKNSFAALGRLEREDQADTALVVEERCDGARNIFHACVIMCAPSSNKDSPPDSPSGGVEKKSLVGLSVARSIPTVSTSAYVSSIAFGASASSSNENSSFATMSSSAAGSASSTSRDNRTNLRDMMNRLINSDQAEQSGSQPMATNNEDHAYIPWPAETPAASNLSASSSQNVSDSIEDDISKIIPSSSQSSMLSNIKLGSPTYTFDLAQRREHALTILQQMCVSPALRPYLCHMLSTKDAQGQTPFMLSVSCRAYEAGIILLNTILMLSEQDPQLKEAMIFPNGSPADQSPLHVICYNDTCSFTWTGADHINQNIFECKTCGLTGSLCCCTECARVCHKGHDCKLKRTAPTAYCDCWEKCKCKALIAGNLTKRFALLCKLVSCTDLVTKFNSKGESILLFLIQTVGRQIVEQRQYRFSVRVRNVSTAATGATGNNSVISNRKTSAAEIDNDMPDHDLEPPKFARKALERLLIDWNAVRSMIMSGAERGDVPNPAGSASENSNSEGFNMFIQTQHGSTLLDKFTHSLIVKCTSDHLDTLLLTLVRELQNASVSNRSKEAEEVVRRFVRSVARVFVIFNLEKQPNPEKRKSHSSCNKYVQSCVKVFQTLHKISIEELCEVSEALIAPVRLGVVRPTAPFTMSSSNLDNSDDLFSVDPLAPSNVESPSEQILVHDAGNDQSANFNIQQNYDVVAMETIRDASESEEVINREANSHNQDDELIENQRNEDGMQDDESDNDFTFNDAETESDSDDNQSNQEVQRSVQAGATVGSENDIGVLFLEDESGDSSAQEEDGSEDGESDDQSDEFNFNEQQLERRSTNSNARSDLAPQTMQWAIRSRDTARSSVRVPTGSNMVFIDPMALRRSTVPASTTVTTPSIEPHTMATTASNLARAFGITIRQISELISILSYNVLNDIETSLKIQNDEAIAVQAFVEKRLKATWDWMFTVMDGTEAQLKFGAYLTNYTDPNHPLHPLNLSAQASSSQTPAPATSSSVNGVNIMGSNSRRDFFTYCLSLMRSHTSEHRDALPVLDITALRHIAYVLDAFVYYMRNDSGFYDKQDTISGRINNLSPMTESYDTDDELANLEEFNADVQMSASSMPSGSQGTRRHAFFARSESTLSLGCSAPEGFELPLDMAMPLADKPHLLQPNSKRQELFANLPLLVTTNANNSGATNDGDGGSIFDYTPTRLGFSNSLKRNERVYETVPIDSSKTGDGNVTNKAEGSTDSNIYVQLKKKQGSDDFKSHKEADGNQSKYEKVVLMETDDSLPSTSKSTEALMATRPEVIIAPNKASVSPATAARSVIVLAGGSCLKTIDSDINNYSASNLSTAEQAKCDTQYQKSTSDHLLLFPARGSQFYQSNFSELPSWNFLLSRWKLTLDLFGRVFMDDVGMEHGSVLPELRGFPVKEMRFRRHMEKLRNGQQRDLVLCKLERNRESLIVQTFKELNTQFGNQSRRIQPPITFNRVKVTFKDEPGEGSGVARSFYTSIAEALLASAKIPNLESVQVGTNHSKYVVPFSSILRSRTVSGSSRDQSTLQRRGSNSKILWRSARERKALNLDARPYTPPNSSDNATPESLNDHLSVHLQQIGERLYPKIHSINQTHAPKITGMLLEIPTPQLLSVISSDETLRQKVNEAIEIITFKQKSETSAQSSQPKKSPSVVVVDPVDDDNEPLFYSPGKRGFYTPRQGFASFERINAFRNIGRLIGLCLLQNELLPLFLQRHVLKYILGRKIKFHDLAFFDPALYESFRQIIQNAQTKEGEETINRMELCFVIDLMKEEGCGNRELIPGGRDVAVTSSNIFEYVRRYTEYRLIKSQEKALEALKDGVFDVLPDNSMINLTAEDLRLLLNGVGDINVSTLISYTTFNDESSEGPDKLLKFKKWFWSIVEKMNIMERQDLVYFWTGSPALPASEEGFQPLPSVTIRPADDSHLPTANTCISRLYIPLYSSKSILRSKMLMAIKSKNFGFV

This passage reports binding results from paper doi:10.1101/323170.

Holding throughout (test): co-IP
Experiment [1] deals with T1, Akirin-V5 (tagged version of Akirin) (Drosophila) (UniProt Q9VS59).
T1 sequence: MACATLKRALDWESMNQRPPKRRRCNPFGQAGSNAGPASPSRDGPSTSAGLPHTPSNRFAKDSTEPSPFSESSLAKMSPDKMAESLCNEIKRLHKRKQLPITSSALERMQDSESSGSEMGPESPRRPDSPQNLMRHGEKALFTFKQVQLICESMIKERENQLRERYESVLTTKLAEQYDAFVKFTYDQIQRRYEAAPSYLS

Experiment [2] has as its target T2, Akirin (untagged) (Drosophila) (UniProt Q9VS59).
T2 sequence: T1 sequence

Experiment [3] concerns the target T1, Akirin-V5 (tagged version of Akirin) (Drosophila). This is another data set of the same source.

As to “BAP60-HA (core member of the SWI/SNF chromatin-remodeling complex, HA-tagged) (from UniProt Q9VYG2 1-515)”, the binding entry in experiment [1] is on record as “binds”. For “V5-tagged Hyd (Hyperplastic Discs, HECT E3 ubiquitin ligase) (from UniProt P51592 1-2885) (enzyme)”, in experiment [2], the binding entry is “binds”.

B1: IAP2-HA (E3-ubiquitin ligase IAP2, HA-tagged) (enzyme, UniProt Q24307 1-498)
chain: MTELGMELESVRLATFGEWPLNAPVSAEDLVANGFFATGNWLEAECHFCHVRIDRWEYGDQVAERHRRSSPICSMVLAPNHCGNVPRSQESDNEGNSVVDSPESCSCPDLLLEANRLVTFKDWPNPNITPQALAKAGFYYLNRLDHVKCVWCNGVIAKWEKNDNAFEEHKRFFPQCPRVQMGPLIEFATGKNLDELGIQPTTLPLRPKYACVDARLRTFTDWPISNIQPASALAQAGLYYQKIGDQVRCFHCNIGLRSWQKEDEPWFEHAKWSPKCQFVLLAKGPAYVSEVLATTAANASSQPATAPAPTLQADVLMDEAPAKEALALGIDGGVVRNAIQRKLLSSGCAFSTLDELLHDIFDDAGAGAALEVREPPEPSAPFIEPCQATTSKAASVPIPVADSIPAKPQAAEAVANISKITDEIQKMSVATPNGNLSLEEENRQLKDARLCKVCLDEEVGVVFLPCGHLATCNQCAPSVANCPMCRADIKGFVRTFLS
With B1, the binding entry in experiment [3] was “no binding”.
